Laboratory results: PubChem BioAssay AID652272 (Drosophila RNAi Screening Center, 2013)
Aim: 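Finding fly genes that regulate Hedgehog signal transduction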 (primary screen). Cells: Drosophila clone 8 (Cl8) cells. Reagent: long dsRNA against Drosophila genes. Detection: 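Firefly light from a Hedgehog-responsive ptc promoter reporter and Renilla reference light, both read on a plate reader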. Scale: firefly Hh reporter signal: higher = more ptc reporter light; Renilla reference signal: higher = more Renilla control light. Call rule: 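Hit when the z-score averaged over two replicates is under -2 or over +3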. Meaning of the calls: active = hit: reporter lowered or raised; inactive = not a hit.
The screen tested about 21,000 reagents; this is a random part of those that have a named target and a result. In the full data, 503 (2.4%) are marked active. 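Raw plate light values, not normalised; calls rest on replicate z-scores that were not deposited; hits include reporter decreases as well as increases.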 Reagent sequences are not shown. Not given: the amount of reagent, the time to read-out.

gene | amplicon | firefly Hh reporter signal, replicate 1 | firefly Hh reporter signal, replicate 2 | firefly Hh reporter signal, replicate 3 | Renilla reference signal, replicate 1 | Renilla reference signal, replicate 2 | outcome
mxc | DRSC17819 | 69911 | 1.50e5 | – | 1401 | 5901 | inactive
GluRIIA | DRSC03334 | 85840 | 39302 | – | 1489 | 4480 | inactive
Acp1 | DRSC01854 | 79754 | 65063 | – | 1594 | 5609 | inactive
betaNACtes4 | DRSC19801 | 86027 | 2.15e5 | – | 2483 | 8816 | inactive
CG14024 | DRSC00868 | 7.39e5 | 1.48e5 | – | 36712 | 7315 | inactive
CG14024 | DRSC02354 | 61436 | 47700 | – | 2769 | 2200 | inactive
Inx5 | DRSC20051 | 67222 | 2.03e5 | – | 1512 | 7928 | inactive
CG32249 | DRSC08101 | 5.03e5 | 1.40e5 | 1.11e5 | 3963 | 3731 | inactive
CG32249 | DRSC08177 | 79003 | 86544 | – | 7296 | 6464 | inactive
unc80 | DRSC15329 | 69651 | 85176 | – | 2272 | 2499 | inactive
PPO2 | DRSC07102 | 58324 | 37128 | – | 2976 | 1752 | inactive
Arms | DRSC03856 | 6.33e5 | 1.55e5 | 1.01e5 | 4507 | 5088 | inactive
Arms | DRSC03857 | 1.15e5 | 1.84e5 | – | 3464 | 8521 | inactive
Arms | DRSC04052 | 1.30e5 | 69396 | – | 4520 | 2944 | inactive
Arms | DRSC04256 | 1.03e5 | 53809 | – | 2673 | 4166 | inactive
CG44837 | DRSC10133 | 58875 | 22865 | 22237 | 3369 | 1881 | inactive
CG44837 | DRSC10558 | 45197 | 22668 | 41143 | 2929 | 3003 | inactive
Irp-1B | DRSC16720 | 79433 | 1.03e5 | – | 2805 | 2611 | inactive
MSBP | DRSC20146 | 94496 | 84837 | – | 2841 | 1987 | inactive
Dhc62B | DRSC08655 | 61763 | 27355 | – | 2235 | 2331 | inactive
CG8907 | DRSC16453 | 1.09e5 | 80789 | – | 4393 | 3356 | inactive
CG9270 | DRSC03182 | 70251 | 79649 | – | 2704 | 3211 | inactive
CG15080 | DRSC06511 | 1.01e5 | 57588 | – | 1778 | 2788 | inactive
CG34203 | DRSC03855 | 1.43e5 | 2.40e5 | – | 3916 | 10728 | inactive
Akt | DRSC14108 | 87636 | 51004 | – | 3942 | 2340 | inactive

Laid out differently: results already given
{"gene":"Arms","amplicon":"DRSC04256","firefly Hh reporter signal, replicate 1":1.03e5,"firefly Hh reporter signal, replicate 2":53809,"Renilla reference signal, replicate 1":2673,"Renilla reference signal, replicate 2":4166,"outcome":"inactive"}
{"gene":"CG44837","amplicon":"DRSC10133","firefly Hh reporter signal, replicate 1":58875,"firefly Hh reporter signal, replicate 2":22865,"firefly Hh reporter signal, replicate 3":22237,"Renilla reference signal, replicate 1":3369,"Renilla reference signal, replicate 2":1881,"outcome":"inactive"}

Continued:
gene | amplicon | firefly Hh reporter signal, replicate 1 | firefly Hh reporter signal, replicate 2 | firefly Hh reporter signal, replicate 3 | Renilla reference signal, replicate 1 | Renilla reference signal, replicate 2 | outcome
Sry-alpha | DRSC16867 | 1.42e5 | 5.54e5 | 77956 | 5140 | 3130 | inactive
CG1418 | DRSC06447 | 1.05e5 | 51144 | – | 2634 | 4179 | inactive
p53 | DRSC17024 | 1.03e5 | 82180 | – | 4823 | 3643 | inactive
CG10663 | DRSC09770 | 65299 | 33980 | 31744 | 1338 | 582 | inactive
CG4836 | DRSC15659 | 1.11e5 | 82458 | – | 4208 | 3696 | inactive
CG8501 | DRSC07198 | 75446 | 51748 | – | 3664 | 2132 | inactive
Cpr65Ay | DRSC08796 | 1.23e5 | 1.92e5 | – | 3424 | 7417 | inactive
Rs1 | DRSC05945 | 51757 | 54720 | – | 2812 | 2625 | inactive
PH4alphaSG1 | DRSC15080 | 86646 | 92218 | – | 2903 | 2354 | inactive
DIP-delta | DRSC10214 | 53723 | 65147 | – | 6216 | 4400 | inactive
DIP-delta | DRSC10450 | 90456 | 89307 | – | 7712 | 5450 | inactive
CG32652 (retired record) | DRSC18942 | 8.26e5 | 6.66e5 | 3.79e5 | 46275 | 5510 | inactive
CG31191 | DRSC13455 | 44180 | 3.25e5 | – | 8618 | 8170 | inactive
CG31191 | DRSC15214 | 5.61e5 | 82736 | – | 27961 | 1883 | inactive
CG31191 | DRSC15215 | 4.78e5 | 55287 | – | 25449 | 1692 | inactive
